Results deposited as PubChem BioAssay AID504791 (Drosophila RNAi Screening Center, 2011)

Purpose: 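Genes of the fly required for silencing by miRNA, siRNA or endo-siRNA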 (primary screen)
Cells: Drosophila S2-derived reporter cells
Reagents: long dsRNA against Drosophila genes, about 150-250 ng dsRNA per well (siRNA assay); about 80-120 ng (miRNA assay)
Time to read-out: about 5 days (siRNA assay); about 4 days (miRNA assay)
Challenge: copper sulfate induction of reporters: 25 µM (siRNA assay); 200 mM stated (miRNA assay), 1-2 days before reading
Measured: 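Dual luciferase assay: Renilla to firefly signal ratio in each well, scaled to the mean ratio of its plate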
Rule for the call: 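a well was a first-pass pick when its plate-scaled ratio rose above 1.5 (siRNA assay) or 1.6 (miRNA assay), or dropped below 0.6; a gene counted only if two separate dsRNAs agreed on retest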
In all, the deposit lists about 23,000 reagents; this is an unselected part of those that have a named target and a result. Of all reagents, 199 (0.86%) were called active. 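Plate-scaled ratios behind the calls are not deposited; printed light signals are raw; many rows marked increased or decreased are still called inactive.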 Unmarked entries are inactive. A plus sign joins genes that one reagent is predicted to hit. No sequences are given here. Not stated in the record: the direction of the score.

| gene | dsRNA | stable siRNA reporter change | stable assay Renilla, run 1 (luminescence) | stable assay firefly, run 1 (luminescence) |
| --- | --- | --- | --- | --- |
| CG12769 | DRSC06167 | – | 8575 | 5.20e5 |
| CG40053 (retired record) | DRSC20833 | – | 3499 | 3.63e5 |
| CG33178 | DRSC19950 | – | 4548 | 3.82e5 |
| CG8701 | DRSC07237 | – | 8478 | 4.25e5 |
| Yif1 | DRSC15817 | – | 6155 | 4.20e5 |
| CG32119 | DRSC09248 | – | 5607 | 4.06e5 |
| CG32119 | DRSC21462 | – | 9683 | 5.45e5 |
| qm | DRSC11386 | – | 6435 | 5.26e5 |
| dx | DRSC18767 | – | 4384 | 2.74e5 |
| ND-ACP | DRSC08724 | – | 5772 | 4.09e5 |
| Clc | DRSC11116 | – | 9935 | 3.46e5 |
| CG14627 | DRSC18630 | – | 6152 | 3.44e5 |
| Nemp | DRSC20206 | – | 7954 | 5.29e5 |
| Fas2 | DRSC17308 | – | 6154 | 3.13e5 |
| Fas2 | DRSC17309 | – | 7243 | 3.69e5 |
| Fas2 | DRSC18664 | – | 7505 | 4.61e5 |
| botv | DRSC05949 | – | 12351 | 4.97e5 |
| MstProx | DRSC12458 | – | 6135 | 3.66e5 |
| MstProx | DRSC12601 | – | 7348 | 4.41e5 |
| tun | DRSC05592 | – | 6731 | 5.36e5 |
| tun | DRSC07127 | – | 9547 | 3.17e5 |
| TfIIA-L | DRSC16882 | – | 6443 | 3.95e5 |
| CG14567 | DRSC11728 | – | 6199 | 3.57e5 |
| Syt4 | DRSC12606 | – | 7207 | 3.32e5 |
| rasp | DRSC08191 | – | 6630 | 3.94e5 |
| Cox10 | DRSC02804 | – | 1.50e5 | 3.56e5 |
| CG1979 | DRSC12495 | – | 8867 | 4.22e5 |
| mRpS14 | DRSC19444 | – | 4372 | 2.71e5 |
| CG4702 | DRSC15626 | – | 9958 | 5.52e5 |
| CG10324 | DRSC14230 | – | 7535 | 3.76e5 |
| Kaz | DRSC14637 | – | 6312 | 3.14e5 |
| Ufsp2 | DRSC10231 | – | 7819 | 2.72e5 |
| Cad89D | DRSC15022 | – | 8574 | 4.72e5 |
| CG15343 | DRSC18028 | – | 5596 | 2.58e5 |
| sa | DRSC11649 | – | 5699 | 4.53e5 |
| beta'COP | DRSC03492 | – | 4819 | 7.45e5 |
| Rpn10 | DRSC11876 | – | 5623 | 2.56e5 |
| CG7800 | DRSC16315 | – | 6544 | 4.21e5 |
| CG13712 | DRSC08321 | – | 6971 | 5.56e5 |
| CG7987 | DRSC16357 | – | 9517 | 6.43e5 |
| CG11382 | DRSC18624 | – | 6175 | 3.82e5 |
| Kif19A | DRSC16576 | – | 4144 | 3.87e5 |
| Glut1 | DRSC07927 | – | 6562 | 5.09e5 |
| Glut1 | DRSC08662 | – | 9137 | 3.63e5 |
| CG42516 + Pbp49 | DRSC06073 | – | 9419 | 3.49e5 |
| klhl10 | DRSC05274 | reporter ratio raised past the hit cutoff | 8384 | 3.26e5 |
| klhl10 | DRSC19171 | – | 3955 | 3.08e5 |
| klhl10 | DRSC20750 | – | 4679 | 2.40e5 |
| klhl10 | DRSC20925 | – | 6020 | 4.57e5 |
| CG9920 | DRSC16578 | – | 7666 | 4.25e5 |
| ras | DRSC18825 | – | 7244 | 4.07e5 |

Looked up above:
CG32119 [DRSC21462], stable assay firefly, run 1 (luminescence) → 5.45e5
Nemp [DRSC20206], stable assay firefly, run 1 (luminescence): 5.29e5
Under “stable assay Renilla, run 1 (luminescence)”, qm [DRSC11386] has 6435
CG10324 [DRSC14230], stable assay firefly, run 1 (luminescence): 3.76e5
CG14567 [DRSC11728], stable assay firefly, run 1 (luminescence) = 3.57e5
For “stable assay firefly, run 1 (luminescence)”, CG8701 [DRSC07237] has 4.25e5

Continued.
| gene | dsRNA | stable siRNA reporter change | stable assay Renilla, run 1 (luminescence) | stable assay firefly, run 1 (luminescence) |
| --- | --- | --- | --- | --- |
| Ada2a | DRSC16206 | – | 7099 | 3.65e5 |
| Ada2a | DRSC21598 | – | 6364 | 3.40e5 |
| CG13775 | DRSC02279 | – | 10430 | 7.50e5 |
| RpL34a | DRSC15964 | – | 7087 | 3.20e5 |
| 5-HT1A | DRSC05030 | – | 5684 | 3.80e5 |
| Ugt36A1 + CG15418 | DRSC00432 | reporter ratio lowered past the hit cutoff | 3855 | 4.68e5 |
| Ulp1 | DRSC19339 | – | 6770 | 5.15e5 |
| CG34051 | DRSC01739 | – | 5246 | 5.30e5 |
| COX4 | DRSC02091 | – | 25608 | 2.10e6 |
| CG3690 | DRSC18170 | – | 6083 | 3.44e5 |
| CG3690 | DRSC18641 | – | 6118 | 4.63e5 |
| CG15200 | DRSC19647 | – | 4867 | 3.64e5 |
| CG5561 | DRSC00688 | – | 7066 | 4.18e5 |
| meru | DRSC09400 | – | 5756 | 3.92e5 |
| meru | DRSC09899 | – | 7255 | 3.49e5 |
| meru | DRSC10215 | – | 8102 | 3.36e5 |
| CG9213 | DRSC20170 | – | 8949 | 4.20e5 |
| CG32813 | DRSC17948 | – | 5379 | 3.67e5 |
| Ppox | DRSC17033 | – | 7395 | 3.30e5 |
| Sod2 | DRSC07554 | – | 8407 | 2.70e5 |
| eya | DRSC03510 | – | 12824 | 5.47e5 |
| Fcp3C | DRSC18665 | – | 6311 | 3.29e5 |
| kst | DRSC08719 | – | 7664 | 5.82e5 |
| toy | DRSC17222 | reporter ratio lowered past the hit cutoff | 3964 | 4.33e5 |
| EMC4 | DRSC11638 | – | 7091 | 4.90e5 |
| CIA30 | DRSC16266 | – | 9082 | 7.39e5 |
| Cdc7 | DRSC18428 | – | 3827 | 3.54e5 |
| Cdc7 | DRSC18429 | – | 5287 | 3.24e5 |
| Cdc7 | DRSC22133 | – | 11423 | 8.14e5 |
| cocoon | DRSC10916 | – | 6126 | 3.87e5 |
| Alp7 | DRSC04355 | – | 6904 | 4.70e5 |
| IntS9 | DRSC10493 | – | 12076 | 3.68e5 |
